Results published in PubChem BioAssay AID330 (DTP/NCI, 2004).
The list is a part of this screen's results and no random one: it gathers tests that were run many times, whatever their T/C, doses with no T/C, and many T/C values between a quarter and a half above the control. Other doses and runs of a compound stand elsewhere. T/C: endpoint of the treated group in % of that of the vehicle group. Some doses have a count of surviving animals in place of a T/C: the source holds a T/C of zero for them, seemingly a mark for toxic or unscored doses. Some survivor counts are full or nearly so, which does not show that the dose was tolerated: the source hardly ever lists a survival T/C far under the control, and the zero likely stands for such cases as well. Counts of survivors are from the toxicity check (mostly the fifth day) where no day follows; animals may have died later. Schedules are NCI's codes, taken here to give the interval after Q, in days (D) or hours (H), and the number of doses after X. For survival time, the PubChem record calls one and a half times the control and up active, and a quarter to a half above the control has no call in these data; cut-offs in other NCI protocols can differ. Some doses were run more than once; the values are given in rising order. Some T/C values carry the count of animals alive at the toxicity check (mostly the fifth day); without a count, all were alive then.

Tested on: P388 leukemia ip, CD2F1 mice, survival T/C
Assay: NCI In Vivo Anticancer Drug Screen. Data for tumor model P388 Leukemia (intraperitoneal) in CD2F1 (CDF1) mice
Conditions: T/C endpoint: median survival time, higher T/C = longer survival
[1] = dose: 50.0 mg/kg/injection, schedule: Q01DX005 (ip), vehicle: Klucel (hydroxypropylcellulose) (HPC)
[2] = dose: 100.0 mg/kg/injection, schedule: Q01DX005 (ip), vehicle: Klucel (hydroxypropylcellulose) (HPC)
[3] = dose: 200.0 mg/kg/injection, schedule: Q01DX005 (ip), vehicle: Klucel (hydroxypropylcellulose) (HPC)
[4] = dose: 240.0 mg/kg/injection, schedule: Q01DX005 (ip), vehicle: Klucel (hydroxypropylcellulose) (HPC)
[5] = dose: 200.0 mg/kg/injection, schedule: Q01DX009 (ip), vehicle: saline with Tween-80
[6] = dose: 200.0 mg/kg/injection, schedule: Q01DX009 (ip), vehicle: gum acacia
[7] = dose: 200.0 mg/kg/injection, schedule: Q01DX005 (ip), vehicle: saline with Tween-80
[8] = dose: 120.0 mg/kg/injection, schedule: Q01DX005 (ip), vehicle: saline
[9] = dose: 240.0 mg/kg/injection, schedule: Q01DX005 (ip), vehicle: saline
[10] = dose: 50.0 mg/kg/injection, schedule: Q01DX009 (ip), vehicle: saline with Tween-80
[11] = dose: 400.0 mg/kg/injection, schedule: Q04DX003 (ip), vehicle: saline with Tween-80

SMILES: C[N+]1(C)CC=CCC1c1ccccc1 (stereo not drawn)
- survivor count (dose: 50.0 mg/kg/injection, schedule: Q01DX005 (ip), vehicle: saline): 0 of 6
- survivor count (dose: 100.0 mg/kg/injection, schedule: Q01DX005 (ip), vehicle: saline): 0 of 6
- survivor count (dose: 200.0 mg/kg/injection, schedule: Q01DX005 (ip), vehicle: saline): 0 of 6

SMILES: O=C(Nc1ccc(NC2=NCCN2)cc1)c1cc(Cl)cc(C(=O)Nc2ccc(NC3=NCCN3)cc2)c1
- T/C [1]: 125 and 128 % of control
- survivor count [2]: 0 of 6
- survivor count [3]: 0 of 6

SMILES: O=C1c2ccccc2C(=O)c2c1cn1c2Cc2ccccc2C1
- survivor count (dose: 180.0 mg/kg/injection, schedule: Q01DX005 (ip), vehicle: Klucel (hydroxypropylcellulose) (HPC)): 1 of 6
- survivor count [4]: 0 of 6

SMILES: CCCCCCCCCCCCCCCCSc1ccc(N=Cc2ccc(N(CC)CC#N)cc2)cc1
- survivor count [5]: 6 of 6

SMILES: CCCCc1ccc(C)c(O)c1
- survivor count [5]: 3 of 6

SMILES: CC(=O)c1c(O)c(C)c(O)c2c1OC1=Cc3c(c(C)nn3C)C(=O)C12C (stereo not drawn)
- T/C (dose: 12.5 mg/kg/injection, schedule: Q01DX009 (ip), vehicle: gum acacia): 101, 102, 110, 125 % of control
- T/C (dose: 25.0 mg/kg/injection, schedule: Q01DX009 (ip), vehicle: gum acacia): 94, 100, 112, 119 % of control
- T/C (dose: 100.0 mg/kg/injection, schedule: Q01DX009 (ip), vehicle: gum acacia): 89, 94, 103, 108 % of control
- T/C [6]: 86, 99, 107 % of control
- survivor count [6]: 6 of 6

SMILES: CN(C)CCCSc1c2ccccc2nc2cccc([N+](=O)[O-])c12
- survivor count (dose: 240.0 mg/kg/injection, schedule: Q01DX005 (ip), vehicle: saline with Tween-80): 6 of 6

SMILES: Cc1ccc(N=CN(C)Sc2ccc(C(C)(C)C)cc2)c(C)c1
- survivor count (dose: 200.0 mg/kg/injection, schedule: Q01DX009 (ip), vehicle: Klucel (hydroxypropylcellulose) (HPC)): 3 of 6
- survivor count (dose: 400.0 mg/kg/injection, schedule: Q01DX009 (ip), vehicle: Klucel (hydroxypropylcellulose) (HPC)): 4 of 6

SMILES: COC(=O)C[N+](C)(C)Cc1ccccc1
- survivor count (dose: 200.0 mg/kg/injection, schedule: Q01DX009 (ip), vehicle: DMSO): 0 of 6

SMILES: COc1cc2cc(c1Cl)NC(=O)CC(OC(=O)C(C)N(C)C(=O)C(C)C)C1(C)OC1C(C)C1CC(O)(NC(=O)O1)C(OC)/C=C/C=C(C)C2OC (stereo not drawn)
- T/C (dose: 4.0 micrograms/kg/injection, schedule: Q01DX009 (ip), vehicle: distilled water + Tween-80 + alcohol): 130 % of control
- T/C (dose: 8.0 micrograms/kg/injection, schedule: Q01DX009 (ip), vehicle: distilled water + Tween-80 + alcohol): 136 % of control
- survivor count (dose: 128.0 micrograms/kg/injection, schedule: Q01DX009 (ip), vehicle: distilled water + Tween-80 + alcohol): 6 of 6

SMILES: O=CCC(O)C(O)C(O)CO (stereo not drawn)
- T/C (dose: 1200.0 mg/kg/injection, schedule: Q01DX009 (ip), vehicle: saline): 125 and 134 % of control
- T/C (dose: 2400.0 mg/kg/injection, schedule: Q01DX009 (ip), vehicle: saline): 137 % of control

SMILES: COC1(OC)C(C)C(C#N)(C#N)C1(OC)OC (stereo not drawn)
- survivor count [4]: 0 of 6

SMILES: CC(=O)O[C@@H]1C(=O)C=C(C)[C@@H]2[C@@H](OC(=O)C=C(C)C)[C@H]3OC(=O)C[C@H]4[C@@H](C)[C@@H](O)[C@]5(O)OC[C@]34[C@H]5[C@@]12C
- T/C (dose: 1.25 mg/kg/injection, schedule: Q01DX009 (ip), vehicle: distilled water + Tween-80): 145 % of control
- T/C (dose: 2.0 mg/kg/injection, schedule: Q01DX009 (ip), vehicle: distilled water + Tween-80): 132 % of control
- T/C (dose: 2.5 mg/kg/injection, schedule: Q01DX009 (ip), vehicle: distilled water + Tween-80): 135 % of control
- T/C (dose: 4.0 mg/kg/injection, schedule: Q01DX009 (ip), vehicle: distilled water + Tween-80): 142 % of control
- T/C (dose: 5.0 mg/kg/injection, schedule: Q01DX009 (ip), vehicle: distilled water + Tween-80): 138 % of control [5 of 6 alive]
- T/C (dose: 8.0 mg/kg/injection, schedule: Q01DX009 (ip), vehicle: distilled water + Tween-80): 142 % of control

SMILES: CCOC(=O)N1C=CC(=C2C(=C3C=CN(C(=O)OCC)C=C3)C(=C3C=CN(C(=O)OCC)C=C3)C2=C2C=CN(C(=O)OCC)C=C2)C=C1
- T/C [7]: 134 % of control
- survivor count [7]: 0 of 6
- survivor count (dose: 400.0 mg/kg/injection, schedule: Q01DX005 (ip), vehicle: saline with Tween-80): 0 of 6

SMILES: CCc1nc(N)nc(N)c1-c1ccc(NCCN)c(N)c1
- survivor count [2]: 2 of 6
- survivor count [3]: 0 of 6

SMILES: Nc1cc2cccc[n+]2c2ccccc12
- survivor count (dose: 60.0 mg/kg/injection, schedule: Q01DX005 (ip), vehicle: saline): 0 of 6
- survivor count [8]: 0 of 6
- survivor count [9]: 0 of 6

SMILES: CCCC(O)C(C)[N+](=O)[O-] (stereo not drawn)
- survivor count (dose: 400.0 mg/kg/injection, schedule: Q04DX003 (ip), vehicle: saline): 3 of 6

SMILES: COc1ccc(Br)cc1/C=C/[N+](=O)[O-]
- survivor count [10]: 1 of 6

SMILES: [Br][Sn]([CH2][Sn]([Br])([c]1ccccc1)[c]1ccccc1)([c]1ccccc1)[c]1ccccc1
- T/C (dose: 12.5 mg/kg/injection, schedule: Q01DX005 (ip), vehicle: Klucel (hydroxypropylcellulose) (HPC)): 127 % of control
- T/C (dose: 25.0 mg/kg/injection, schedule: Q01DX005 (ip), vehicle: Klucel (hydroxypropylcellulose) (HPC)): 127 % of control
- T/C [1]: 127 % of control
- survivor count [1]: 3 of 6
- survivor count [2]: 5 of 6
- survivor count [3]: 0 of 6

SMILES: C=C1C(=O)OC2/C=C(/C)CC/C=C(\C(=O)O)CC/C=C(\C)CCC12 (stereo not drawn)
- survivor count [11]: 0 of 6

SMILES: COC(=O)C1CC(OC(C)=O)C(=O)[C@H]2C1(C)CC[C@H]1C(=O)O[C@H](c3ccoc3)CC12C (stereo partly drawn)
- survivor count (dose: 152.0 mg/kg/injection, schedule: Q01DX005 (ip), vehicle: Klucel (hydroxypropylcellulose) (HPC)): 6 of 6

SMILES: NCCc1cc2ccccc2c2ccccc12
- survivor count [2]: 0 of 6
- survivor count [3]: 0 of 6

SMILES: CNC(=O)OCc1c(COC(=O)NC)c(-c2ccc(Cl)c(Cl)c2)n2c1Cc1ccccc1C2
- T/C (dose: 12.5 mg/kg/injection, schedule: Q01DX009 (ip), vehicle: distilled water + Tween-80): 138 and 147 % of control

SMILES: CSC1=NC(=S)C(C)(C)NN1
- survivor count (dose: 200.0 mg/kg/injection, schedule: Q04DX002 (ip), vehicle: Klucel (hydroxypropylcellulose) (HPC)): 4 of 6
- survivor count (dose: 400.0 mg/kg/injection, schedule: Q04DX002 (ip), vehicle: Klucel (hydroxypropylcellulose) (HPC)): 0 of 6

SMILES: C=CCNC(=O)SCC
- survivor count [7]: 0 of 6

SMILES: OC(c1cc2cc(Cl)ccc2c2cc(C(F)(F)F)ccc12)C1CCCCN1 (stereo not drawn)
- survivor count (dose: 25.0 mg/kg/injection, schedule: Q01DX009 (ip), vehicle: saline with Tween-80): 6 of 6
- survivor count [10]: 2 of 6
- survivor count (dose: 100.0 mg/kg/injection, schedule: Q01DX009 (ip), vehicle: saline with Tween-80): 0 of 6
- survivor count [5]: 0 of 6

SMILES: C=Cc1ccccc1N/N=C(\Cl)C(=O)OCC
- survivor count (dose: 400.0 mg/kg/injection, schedule: Q04DX002 (ip), vehicle: saline with Tween-80): 2 of 6

SMILES: CC1OC(OC23C(=O)CC(C)(O)CC2(O)C=CC2=C3C(=O)c3ccc(C4CC(OC5CCC(OC6CC(O)C(O)C(C)O6)C(C)O5)C(O)C(C)O4)c(O)c3C2=O)CCC1O (stereo not drawn)
- survivor count (dose: 8.0 mg/kg/injection, schedule: Q01DX005 (ip), vehicle: DMSO): 6 of 6
- survivor count (dose: 50.0 mg/kg/injection, schedule: Q04DX003 (ip), vehicle: Klucel (hydroxypropylcellulose) (HPC)): 1 of 6 on day 9

SMILES: CCCCCCC(O)C(CCCCCC)[Se]C (stereo not drawn)
- survivor count (dose: 200.0 mg/kg/injection, schedule: Q04DX003 (ip), vehicle: saline with Tween-80): 2 of 6
- survivor count [11]: 0 of 6

SMILES: O=NN(CCF)C(=O)NC12CC3CC(CC(C3)C1)C2
- survivor count (dose: 200.0 mg/kg/injection, schedule: Q04DX003 (ip), vehicle: Klucel (hydroxypropylcellulose) (HPC)): 2 of 6
- survivor count (dose: 400.0 mg/kg/injection, schedule: Q04DX003 (ip), vehicle: Klucel (hydroxypropylcellulose) (HPC)): 0 of 6

SMILES: Cc1cccc(/C=C/C(=O)C(C)CN(C)C)c1 (stereo not drawn)
- survivor count [8]: 2 of 6
- survivor count [9]: 0 of 6
